Data as given in PubChem BioAssay AID493246 (Drosophila RNAi Screening Center, 2011).
Test: 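Identify essential fly genes by loss of cell viability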 (primary screen). Cell system: Drosophila Kc and S2R+ cells. Reagents: long dsRNA against Drosophila genes. Read-out: 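Cell number per well after knock-down, printed as raw plate values; calls were based on per-plate z-scores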. Reading the numbers: Kc cell number and S2R+ cell number: higher = more cells remaining. Hit rule: 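Counted as a hit if cell number falls by a z-score of at least 3 within its plate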.
The screen tested about 21,000 reagents; shown is a random part of those with a known target gene and a result. Of all reagents, 429 (2%) are marked active. 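Values are raw and not normalised between plates; calls rest on per-plate z-scores that were not deposited.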 The numbers tell different reagents against one gene apart. No sequences are given here. Not stated in the record: the amount of reagent, the time to read-out.

{"gene": "CtsB", "dsRNA no.": 1, "Kc cell number, rep 1": 5.37e5, "S2R+ cell number, rep 1": 8.15e5, "call": "inactive"}
{"gene": "SmydA-9", "dsRNA no.": 1, "Kc cell number, rep 1": 1.56e6, "Kc cell number, rep 2": 1.61e6, "S2R+ cell number, rep 1": 1.03e6, "S2R+ cell number, rep 2": 1.18e6, "call": "inactive"}
{"gene": "PGAP2", "dsRNA no.": 1, "Kc cell number, rep 1": 1.00e6, "Kc cell number, rep 2": 1.22e6, "S2R+ cell number, rep 1": 5.47e5, "S2R+ cell number, rep 2": 7.59e5, "call": "inactive"}
{"gene": "Rbfox1", "dsRNA no.": 1, "Kc cell number, rep 1": 1.37e6, "Kc cell number, rep 2": 1.34e6, "S2R+ cell number, rep 1": 9.85e5, "S2R+ cell number, rep 2": 1.11e6, "call": "inactive"}
{"gene": "Rbfox1", "dsRNA no.": 2, "Kc cell number, rep 1": 1.02e6, "Kc cell number, rep 2": 7.05e5, "S2R+ cell number, rep 1": 4.08e5, "S2R+ cell number, rep 2": 5.49e5, "call": "active"}
{"gene": "Rbfox1", "dsRNA no.": 3, "Kc cell number, rep 1": 1.56e6, "Kc cell number, rep 2": 1.54e6, "S2R+ cell number, rep 1": 1.07e6, "S2R+ cell number, rep 2": 1.30e6, "call": "inactive"}
{"gene": "Rap1", "dsRNA no.": 1, "Kc cell number, rep 1": 1.34e6, "Kc cell number, rep 2": 1.43e6, "S2R+ cell number, rep 1": 1.20e6, "S2R+ cell number, rep 2": 1.22e6, "call": "inactive"}
{"gene": "bark", "dsRNA no.": 1, "Kc cell number, rep 1": 1.58e6, "Kc cell number, rep 2": 1.54e6, "S2R+ cell number, rep 1": 1.20e6, "S2R+ cell number, rep 2": 1.39e6, "call": "inactive"}
{"gene": "CG31493", "dsRNA no.": 1, "Kc cell number, rep 1": 1.74e6, "Kc cell number, rep 2": 1.66e6, "S2R+ cell number, rep 1": 1.35e6, "S2R+ cell number, rep 2": 1.45e6, "call": "inactive"}
{"gene": "Gr59c", "dsRNA no.": 1, "Kc cell number, rep 1": 1.64e6, "Kc cell number, rep 2": 1.67e6, "S2R+ cell number, rep 1": 1.33e6, "S2R+ cell number, rep 2": 1.60e6, "call": "inactive"}
{"gene": "alpha-Est5", "dsRNA no.": 1, "Kc cell number, rep 1": 1.63e6, "Kc cell number, rep 2": 1.63e6, "S2R+ cell number, rep 1": 1.21e6, "S2R+ cell number, rep 2": 1.30e6, "call": "inactive"}
{"gene": "nompA", "dsRNA no.": 1, "Kc cell number, rep 1": 1.55e6, "Kc cell number, rep 2": 1.52e6, "S2R+ cell number, rep 1": 1.18e6, "S2R+ cell number, rep 2": 1.33e6, "call": "inactive"}
{"gene": "sff", "dsRNA no.": 1, "Kc cell number, rep 1": 1.45e6, "Kc cell number, rep 2": 1.49e6, "S2R+ cell number, rep 1": 1.24e6, "S2R+ cell number, rep 2": 1.31e6, "call": "inactive"}
{"gene": "eIF3i", "dsRNA no.": 1, "Kc cell number, rep 1": 1.00e6, "Kc cell number, rep 2": 1.25e6, "S2R+ cell number, rep 1": 3.42e5, "S2R+ cell number, rep 2": 5.41e5, "call": "inactive"}

Only “Kc cell number, rep 2” (2 entries from above):
CG31493 = 1.66e6
Gr59c = 1.67e6
